Taken from: PubChem BioAssay AID504786 (Drosophila RNAi Screening Center, 2011)

Aim: 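Positive regulators of HIF-driven reporter output in Drosophila cells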 (primary screen)
System: Drosophila S2 cells with a stable HIF luciferase reporter
Knock-down reagent: long dsRNA against Drosophila genes, about 0.2 µg dsRNA per well of a 384-well plate
Duration: three days of knock-down, then 20 h of DFO before reading
Challenge: desferrioxamine (DFO) at 100 µM, an iron chelator that mimics hypoxia, for 20 h
Detection: 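Firefly luciferase driven by the mouse ldh-a hypoxia-response element, measured after 20 h of 100 µM DFO; z-scores per plate, higher means more signal lost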
Scale: z-score: higher = stronger loss of HIF reporter signal
In all, the deposit lists about 21,000 reagents; below is an unselected part of those that have a named target and a result. 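Primary screen; positive scores mean lost reporter signal, so the sign may be inverted from the usual convention.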 The numbers tell different reagents against one gene apart. A plus sign joins genes that one reagent is predicted to hit.

gene | reagent no. | z-score, replicate 1 | z-score, replicate 2 | z-score, replicate 3 | z-score, replicate 4
CG42808 + CG42807 | 1 | -0.3 | 0.2 | – | –
CG42808 + CG42807 | 2 | -0.4 | -0.5 | – | –
CG31562 (retired record) | 1 | -0.1 | -0.7 | – | –
CG31562 (retired record) | 2 | -0.3 | -0.3 | – | –
Marcal1 | 1 | -0.1 | -0.9 | – | –
CG4815 | 1 | -0.2 | -0.4 | – | –
spd-2 (spindle defective 2) | 1 | -0.2 | -0.2 | – | –
fliI (flightless I) | 1 | 0.1 | -0.2 | – | –
CG4119 | 1 | 1.3 | 1.9 | – | –
CG7059 | 1 | -0.9 | -0.8 | – | –
Hr3 (Hormone receptor 3) | 1 | 1.5 | 1.2 | – | –
Hr3 (Hormone receptor 3) | 2 | -0.4 | -0.3 | – | –
CG14624 | 1 | -0.3 | -0.1 | – | –
CG6753 | 1 | -0.4 | 0 | – | –
Lamp1 | 1 | -0.4 | 0.1 | – | –
stretch (retired record) | 1 | -0.3 | -0.2 | – | –
stretch (retired record) | 2 | -0.3 | -0.7 | – | –
stretch (retired record) | 3 | -0.2 | -0.7 | – | –
stretch (retired record) | 4 | -0.4 | -0.7 | – | –
stretch (retired record) | 5 | -0.3 | 1.5 | – | –
plum | 1 | -0.3 | -0.2 | – | –
hpRNA:CR32207 (hairpin RNA:CR32207) | 1 | 0.1 | -0.1 | – | –
Cyp6a22 (Cytochrome P450 6a22) | 1 | -0.2 | 0.1 | – | –
Eip78C (Ecdysone-induced protein 78C) | 1 | 2 | 2 | – | –
CG34125 | 1 | -0.1 | -0.6 | – | –
CG12209 | 1 | -0.2 | -0.5 | – | –
CG12898 | 1 | -0.3 | -0.1 | – | –
CG13251 | 1 | -0.2 | -0.1 | – | –
Tim10 + CG42497 | 1 | -0.2 | -0.2 | – | –
CG15308 | 1 | -0.3 | -0.2 | – | –
Sirup (Starvation-upregulated protein) | 1 | -0.4 | -0.6 | – | –
CheA75a (Chemosensory protein A 75a) | 1 | -0.3 | -0.6 | – | –
Ric (Ras-related protein interacting with calmodulin) | 1 | -0.2 | -0.1 | – | –
mub (mushroom-body expressed) | 1 | -0.1 | 0 | – | –
Cisd2 (CDGSH iron sulfur domain 2) | 1 | 0 | 0.1 | – | –
CG14411 | 1 | -0.3 | -0.5 | – | –
mRpS28 (mitochondrial ribosomal protein S28) | 1 | 0.3 | -0.2 | – | –
schuy (schumacher-levy) | 1 | -0.3 | -0.4 | – | –
CG15040 | 1 | -1.3 | -0.3 | – | –
CG5863 | 1 | -0.2 | 0.2 | – | –
CG14810 | 1 | -0.2 | -0.2 | – | –
CG14810 | 2 | -0.1 | -0.5 | – | –
Col4a1 (Collagen type IV alpha 1) | 1 | -0.3 | -0.5 | – | –
CG8407 | 1 | -0.4 | 0.8 | – | –
RhoGAP54D (Rho GTPase activating protein at 54D) | 1 | -0.3 | -0.1 | – | –
CG5196 | 1 | -0.3 | 0.1 | – | –
CG17698 | 1 | -0.2 | -0.5 | – | –
CG42809 + CG42810 | 1 | -0.3 | -0.6 | – | –
CG42809 + CG42810 | 2 | -0.1 | -0.3 | – | –
CG30105 | 1 | -0.8 | -0.2 | – | –
Ror | 1 | -0.2 | -0.7 | – | –
CG42586 + CG31775 | 1 | -0.4 | -0.8 | – | –
CG11842 | 1 | -0.4 | -0.1 | – | –
CG13186 | 1 | -0.3 | -0.3 | – | –
CG9592 | 1 | -0.4 | -0.5 | – | –
HisCl1 (Histamine-gated chloride channel subunit 1) | 1 | -0.3 | -0.4 | – | –
CG32767 | 1 | 0.3 | 0 | – | –
hdly (hadley) | 1 | 0.2 | -0.5 | – | –
CG9168 | 1 | -0.2 | 0 | – | –
Arp1 (Actin-related protein 1) | 1 | -0.3 | -0.4 | – | –
Sec13 (Secretory 13) | 1 | -0.3 | 0.1 | – | –
dpr14 (defective proboscis extension response 14) | 1 | -0.3 | -0.2 | – | –
nudE | 1 | -0.2 | 0.5 | – | –
nudE | 2 | -0.1 | 0.2 | – | –
CG32373 | 1 | -0.2 | -0.2 | – | –
CG5731 | 1 | 0.1 | 0.8 | – | –
RpL22-like (Ribosomal protein L22-like) | 1 | -0.4 | -0.2 | – | –
CG5565 | 1 | 0 | -0.3 | – | –
rdgC (retinal degeneration C) | 1 | -0.1 | 0.3 | – | –
CG34025 | 1 | -0.3 | -0.2 | – | –
Dgat2 (Diacylglycerol O-acyltransferase 2) | 1 | -0.3 | -0.1 | – | –
ACXA (Adenylyl cyclase X A) | 1 | -0.3 | -0.2 | – | –
Tsp42Eq (Tetraspanin 42Eq) | 1 | -0.2 | -0.3 | – | –
CG42634 + CG42635 | 1 | -0.2 | -0.6 | – | –
CG4741 | 1 | -0.1 | -0.2 | – | –
Esp (Epidermal stripes and patches) | 1 | -0.2 | -0.5 | – | –
RhoGEF3 (retired record) | 1 | 0.3 | 0.5 | -0.6 | -0.3
RhoGEF3 (retired record) | 2 | -0.1 | -0.1 | – | –
Hesr (HES-related) | 1 | -0.2 | -0.6 | – | –
Pfrx (6-phosphofructo-2-kinase) | 1 | 0 | 0 | – | –
Pfrx (6-phosphofructo-2-kinase) | 2 | 0.1 | 0 | – | –
Msr-110 | 1 | 0.1 | 0.6 | – | –
REG (Proteasome regulator gamma) | 1 | 0.3 | -0.1 | – | –
Tasp1 (Taspase 1) | 1 | -0.3 | -0.5 | – | –
RpS10b (Ribosomal protein S10b) | 1 | 0 | 5.1 | 0.3 | 2.1
Pof (Painting of fourth) | 1 | -0.3 | -0.2 | – | –
robl (roadblock) | 1 | -0.4 | -0.3 | – | –
CG34276 | 1 | -0.4 | 1.4 | – | –
CG17959 | 1 | -0.3 | -0.2 | – | –
beta-Man (beta-Mannosidase) | 1 | -0.3 | -0.4 | – | –
beta-Man (beta-Mannosidase) | 2 | -0.3 | -0.4 | – | –
CG34001 | 1 | -0.3 | -0.4 | – | –
Or85a (Odorant receptor 85a) | 1 | -0.3 | -0.1 | – | –
CG10958 | 1 | -0.3 | -0.3 | – | –
Orcokinin | 1 | -0.4 | -0.7 | – | –
CG7786 | 1 | -0.3 | -0.2 | – | –
L (retired record) | 1 | -0.2 | 0.1 | – | –
L (retired record) | 2 | 0.4 | 0.1 | – | –
CG11298 | 1 | -0.4 | -0.1 | – | –
Pgant2 (Polypeptide N-Acetylgalactosaminyltransferase 2) | 1 | -0.3 | 0 | – | –
CG12307 | 1 | -0.1 | -0.1 | – | –
rt (rotated abdomen) | 1 | -0.3 | -0.1 | – | –
Aduk (Another Drosophila Unc-51-like kinase) | 1 | -0.3 | 0.5 | – | –
CG13245 | 1 | -0.3 | -0.4 | – | –
PGS1 (Phosphatidylglycerophosphate synthase 1) | 1 | -1.1 | -0.5 | – | –
CG31265 | 1 | -0.4 | 0 | – | –
